Numbering of substitutions follows the chain as printed. Numbers in names are those of the source. No constants are given. Whether binding was seen depends on the method and setting. For part of these data: Binding seen in cells or lysates may run through a third protein. Some entries that bind do so weakly or less than the wild type. For part of these data: Sequences can lack the tags named with a protein.
How the values were obtained:
[1] = target: NADK R45H mutant (human) (UniProt O95544); assay: cross-linking; supernatant of sonicated transfected HEK293T cells in PBS, 0.2 mM BS3 on ice for 10 min, quenched with 50 mM Tris-HCl pH 8.0; immunoblotting
[2] = target: NADK D314H mutant (human) (UniProt O95544); assay: as above
[3] = target: HA-NADK full-length (FL), wild type (human) (UniProt O95544); assay: SEC; lysates of transfected HEK293T cells with endogenous NADK knocked out, Superdex 200 Increase 10/300 GL, 0.5 mL/min; fractions analysed by immunoblotting
[4] = target: HA-NADK full-length (FL), wild type (human) (UniProt O95544); assay: cross-linking; supernatant of sonicated transfected HEK293T cells in PBS, 0.2 mM BS3 on ice for 10 min, quenched with 50 mM Tris-HCl pH 8.0; immunoblotting
[5] = target: NADK C349S mutant (human) (UniProt O95544); assay: as above
[6] = target: NADK Y327A mutant (human) (UniProt O95544); assay: as above

B1: NADK R45H mutant (enzyme, UniProt O95544 1-446)
chain: MEMEQEKMTMNKELSPDAAAYCCSACHGDETWSYNHPIRGRAKSHSLSASPALGSTKEFRRTRSLHGPCPVTTFGPKACVLQNPQTIMHIQDPASQRLTWNKSPKSVLVIKKMRDASLLQPFKELCTHLMEENMIVYVEKKVLEDPAIASDESFGAVKKKFCTFREDYDDISNQIDFIICLGGDGTLLYASSLFQGSVPPVMAFHLGSLGFLTPFSFENFQSQVTQVIEGNAAVVLRSRLKVRVVKELRGKKTAVHNGLGENGSQAAGLDMDVGKQAMQYQVLNEVVIDRGPSSYLSNVDVYLDGHLITTVQGDGVIVSTPTGSTAYAAAAGASMIHPNVPAIMITPICPHSLSFRPIVVPAGVELKIMLSPEARNTAWVSFDGRKRQEIRHGDSISITTSCYPLPSICVRDPVSDWFESLAQCLHWNVRKKQAHFEEEEEEEEEG
binding [1]: binds

B2: NADK D314H mutant (enzyme, UniProt O95544 1-446)
chain: B1 chain with H45R, D314H
binding [2]: binds

B3: HA-NADK full-length (FL), wild type (enzyme, UniProt O95544 1-446)
chain: B1 chain with H45R
binding [3]: binds
binding [4]: binds

B4: NADK C349S mutant (enzyme, UniProt O95544 1-446)
chain: B1 chain with H45R, C349S
binding [5]: binds

B5: NADK Y327A mutant (enzyme, UniProt O95544 1-446)
chain: B1 chain with H45R, Y327A
binding [6]: binds
